These are yes or no findings as the source states them, for the method shown. Binding seen in cells or lysates may run through a third protein. These calls come from enrichment with a bait or labelling near it, and not all partners need be listed. Where a sequence is shown, tags or fusion partners need not be part of it.
Target: T1, 6xHis-tagged Mdf1p (S. cerevisiae) (UniProt P25585)
T1 sequence: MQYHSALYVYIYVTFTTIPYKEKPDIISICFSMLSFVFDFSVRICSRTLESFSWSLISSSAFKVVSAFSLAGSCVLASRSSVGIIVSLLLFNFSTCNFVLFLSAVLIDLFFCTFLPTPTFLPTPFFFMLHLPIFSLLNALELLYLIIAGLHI
Experiment: affinity purification with mass spectrometry; lysate of yeast overexpressing 6xHis-tagged Mdf1p precipitated with anti-His antibody and protein-G agarose; SDS-PAGE, silver stain, unique band against wild-type control analysed by MALDI-TOF/TOF; lysis buffer 50 mM Tris-HCl pH 7.5, 150 mM NaCl, 0.2% NP-40, 4°C

binding: binds
B1: Snf1p (protein, UniProt P06782 1-633)
chain: MSSNNNTNTAPANANSSHHHHHHHHHHHHHGHGGSNSTLNNPKSSLADGAHIGNYQIVKTLGEGSFGKVKLAYHTTTGQKVALKIINKKVLAKSDMQGRIEREISYLRLLRHPHIIKLYDVIKSKDEIIMVIEYAGNELFDYIVQRDKMSEQEARRFFQQIISAVEYCHRHKIVHRDLKPENLLLDEHLNVKIADFGLSNIMTDGNFLKTSCGSPNYAAPEVISGKLYAGPEVDVWSCGVILYVMLCRRLPFDDESIPVLFKNISNGVYTLPKFLSPGAAGLIKRMLIVNPLNRISIHEIMQDDWFKVDLPEYLLPPDLKPHPEEENENNDSKKDGSSPDNDEIDDNLVNILSSTMGYEKDEIYESLESSEDTPAFNEIRDAYMLIKENKSLIKDMKANKSVSDELDTFLSQSPPTFQQQSKSHQKSQVDHETAKQHARRMASAITQQRTYHQSPFMDQYKEEDSTVSILPTSLPQIHRANMLAQGSPAASKISPLVTKKSKTRWHFGIRSRSYPLDVMGEIYIALKNLGAEWAKPSEEDLWTIKLRWKYDIGNKTNTNEKIPDLMKMVIQLFQIETNNYLVDFKFDGWESSYGDDTTVSNISEDEMSTFSAYPFLHLTTKLIMELAVNSQSN

From PMC4250933
